Measurements from “University of Dundee, Small-Polar-MMV Screening Library” (2021), ChEMBL document CHEMBL3988442.

Sequences of proteins named here, by UniProt entry; tags and fusion partners are left off.
UniProt I6X8D2, whole entry: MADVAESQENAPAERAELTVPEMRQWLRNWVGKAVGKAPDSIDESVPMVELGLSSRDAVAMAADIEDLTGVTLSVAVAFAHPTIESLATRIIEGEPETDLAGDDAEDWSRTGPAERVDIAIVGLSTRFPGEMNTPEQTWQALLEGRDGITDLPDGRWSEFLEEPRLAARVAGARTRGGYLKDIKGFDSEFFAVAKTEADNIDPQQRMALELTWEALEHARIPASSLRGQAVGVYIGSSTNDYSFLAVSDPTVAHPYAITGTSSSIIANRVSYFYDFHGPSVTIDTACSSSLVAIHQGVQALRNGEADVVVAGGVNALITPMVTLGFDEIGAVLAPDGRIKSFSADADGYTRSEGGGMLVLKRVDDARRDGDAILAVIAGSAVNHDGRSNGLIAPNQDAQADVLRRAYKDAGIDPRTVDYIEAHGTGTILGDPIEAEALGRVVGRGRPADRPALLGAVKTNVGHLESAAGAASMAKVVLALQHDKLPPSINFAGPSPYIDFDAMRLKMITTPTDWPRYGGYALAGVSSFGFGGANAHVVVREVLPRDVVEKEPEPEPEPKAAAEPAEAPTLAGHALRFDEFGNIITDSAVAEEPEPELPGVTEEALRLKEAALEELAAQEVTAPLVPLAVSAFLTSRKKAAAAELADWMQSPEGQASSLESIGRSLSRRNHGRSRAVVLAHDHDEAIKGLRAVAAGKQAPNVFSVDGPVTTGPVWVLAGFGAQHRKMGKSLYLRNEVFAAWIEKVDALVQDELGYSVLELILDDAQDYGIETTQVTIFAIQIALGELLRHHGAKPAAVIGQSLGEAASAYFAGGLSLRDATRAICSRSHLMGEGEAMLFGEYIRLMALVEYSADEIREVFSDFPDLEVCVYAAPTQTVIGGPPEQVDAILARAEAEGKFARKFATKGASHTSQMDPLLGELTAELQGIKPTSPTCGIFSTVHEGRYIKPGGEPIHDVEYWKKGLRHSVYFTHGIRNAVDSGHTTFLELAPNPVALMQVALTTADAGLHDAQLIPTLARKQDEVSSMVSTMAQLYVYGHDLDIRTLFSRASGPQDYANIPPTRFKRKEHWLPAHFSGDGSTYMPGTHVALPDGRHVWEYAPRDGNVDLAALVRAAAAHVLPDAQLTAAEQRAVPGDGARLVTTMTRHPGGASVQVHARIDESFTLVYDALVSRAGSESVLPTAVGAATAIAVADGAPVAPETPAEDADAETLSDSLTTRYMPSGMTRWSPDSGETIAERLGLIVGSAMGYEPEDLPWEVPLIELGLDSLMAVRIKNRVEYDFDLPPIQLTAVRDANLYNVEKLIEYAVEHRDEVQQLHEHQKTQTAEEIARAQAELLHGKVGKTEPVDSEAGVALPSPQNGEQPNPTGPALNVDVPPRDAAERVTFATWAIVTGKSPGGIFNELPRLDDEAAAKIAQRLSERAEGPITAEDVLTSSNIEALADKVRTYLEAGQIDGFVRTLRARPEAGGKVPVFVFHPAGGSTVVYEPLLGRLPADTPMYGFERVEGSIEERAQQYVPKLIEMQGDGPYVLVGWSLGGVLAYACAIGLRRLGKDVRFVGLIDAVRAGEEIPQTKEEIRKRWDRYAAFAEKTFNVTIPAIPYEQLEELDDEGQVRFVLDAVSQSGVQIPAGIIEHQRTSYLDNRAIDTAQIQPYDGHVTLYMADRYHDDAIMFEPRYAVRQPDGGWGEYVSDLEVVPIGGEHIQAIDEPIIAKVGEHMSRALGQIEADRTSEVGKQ
UniProt P9WNZ1, whole entry: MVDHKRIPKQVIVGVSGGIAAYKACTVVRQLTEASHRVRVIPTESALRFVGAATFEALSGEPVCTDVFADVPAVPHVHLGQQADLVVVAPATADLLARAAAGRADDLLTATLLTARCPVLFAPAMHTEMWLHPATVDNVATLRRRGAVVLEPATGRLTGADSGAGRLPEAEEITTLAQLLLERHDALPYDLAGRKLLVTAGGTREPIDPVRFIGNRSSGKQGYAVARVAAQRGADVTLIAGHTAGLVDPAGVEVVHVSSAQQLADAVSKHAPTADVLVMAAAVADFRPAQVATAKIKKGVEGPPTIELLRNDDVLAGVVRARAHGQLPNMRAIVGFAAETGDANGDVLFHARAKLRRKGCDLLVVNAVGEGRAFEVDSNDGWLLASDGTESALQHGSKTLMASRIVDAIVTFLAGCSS
UniProt P9WPC5, whole entry: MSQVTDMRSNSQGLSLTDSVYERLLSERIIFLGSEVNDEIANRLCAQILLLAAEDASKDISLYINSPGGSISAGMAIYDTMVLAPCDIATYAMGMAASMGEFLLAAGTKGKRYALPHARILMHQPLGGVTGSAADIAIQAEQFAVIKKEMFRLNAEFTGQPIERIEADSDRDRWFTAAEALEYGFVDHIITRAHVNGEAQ
UniProt P9WPC3, whole entry partner: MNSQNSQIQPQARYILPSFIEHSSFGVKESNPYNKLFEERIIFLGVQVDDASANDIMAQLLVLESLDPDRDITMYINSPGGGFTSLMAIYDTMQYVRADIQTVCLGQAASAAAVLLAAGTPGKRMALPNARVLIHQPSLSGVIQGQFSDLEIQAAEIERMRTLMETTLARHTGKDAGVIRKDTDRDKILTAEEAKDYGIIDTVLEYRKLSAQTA
UniProt P9WFT3, whole entry: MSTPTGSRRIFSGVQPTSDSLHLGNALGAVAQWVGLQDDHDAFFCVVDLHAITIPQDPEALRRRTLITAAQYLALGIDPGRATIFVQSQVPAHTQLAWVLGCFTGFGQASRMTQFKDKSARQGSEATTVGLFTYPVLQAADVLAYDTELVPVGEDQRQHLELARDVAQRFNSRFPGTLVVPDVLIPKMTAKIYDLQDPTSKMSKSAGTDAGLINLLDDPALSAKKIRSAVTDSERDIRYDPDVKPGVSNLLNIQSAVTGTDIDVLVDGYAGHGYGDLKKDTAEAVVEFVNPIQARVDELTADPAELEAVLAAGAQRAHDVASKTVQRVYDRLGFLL

Pks13 thioesterase: 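Enzyme assay of the thioesterase domain of polyketide synthase 13; the read-out is not stated. Target: Polyketide synthase Pks13, Mycobacterium tuberculosis (UniProt I6X8D2). Concentration: 30 µM. The record gives no direction; the compounds picked for IC50 retests had high values, so higher reads as stronger inhibition. Of about 67,000 compounds tested this way, about 300 (0.46%) reached 50% or more in at least one test.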
Toxoplasma: 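Assay of Toxoplasma gondii numbers, read through their beta-galactosidase reporter with a colour substrate. Compounds at 10 µM. The record gives no direction; the compounds picked for IC50 retests had high values, so higher reads as fewer parasites. About 67,000 compounds were tested under these conditions; 0.38% (about 260) showed 50% or more at least once.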
CoaBC: 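Coenzyme A biosynthesis protein CoaBC, Mycobacterium tuberculosis (UniProt P9WNZ1). Enzyme assay of CoaBC with a phosphate dye (Biomol Green) read at 650 nm. Compounds at 30 µM. Higher reads as stronger inhibition, judged from the few compounds that gave an IC50. Most strong results did not repeat in a second test. Size under these conditions: about 67,000 compounds, about 40 of them at 50% or above in at least one test.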
ClpP1P2: 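Protease assay of ClpP1P2, read by the AMC dye that it sets free. Target: ClpP1P2, Mycobacterium tuberculosis (UniProt P9WPC5 and UniProt P9WPC3). Compounds at 50 µM. Higher reads as stronger inhibition, judged from the few compounds that gave an IC50. Most other retested compounds had strongly negative values. About 69,000 compounds were tested under these conditions; 0.015% (about 10) showed 50% or more at least once.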
Leishmania in macrophages: 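Cell assay of Leishmania donovani living inside macrophages; the read-out is not stated. Tested at 30 µM. Direction is inferred from retests: higher values go with stronger inhibition. Of about 69,000 compounds tested this way, about 1,000 (1.5%) reached 50% or more in at least one test.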
MtTrpRS: 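Enzyme assay of tryptophanyl-tRNA synthetase; the read-out is not stated. Target: Tryptophan-tRNA ligase, Mycobacterium tuberculosis (UniProt P9WFT3). Tested at 10 µM. Higher most likely means stronger inhibition; the record gives no direction and few retests gave an IC50. About 65,000 compounds were tested under these conditions; 0.098% (about 64) showed 50% or more at least once.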

Each number is a percent effect as filed.
The record does not define 0% and 100%; most values in the screen are far below 50% and negative numbers occur (in some assays of this library far below -100).
Compounds were drawn at random from those tested, without regard to their results.
Two or more numbers in one place are separate tests of the same structure; such repeats can differ widely.
A dash means the value is not listed here; it may have been measured.

SMILES,Pks13 thioesterase,Toxoplasma,CoaBC,ClpP1P2,Leishmania in macrophages,MtTrpRS
CCN(CC)CCCNc1nccc(-c2cn(C)nc2C)n1,-7.913,4.123,3.571,-3.501,-4.532,0.9721
CS(=O)(=O)NCCNc1ncnc2cccc(F)c12,-16.18,-23.56,5.093,-8.025,8.837,-2.75
CC(CCc1ccccc1)N1CCC(C(=O)Nc2cnccn2)CC1 (stereo not given),-1.984,10.9,2.278,-12.3,2.598 & 8.196,-2.249
CN(Cc1ccco1)Cc1cncc2c1CCN(S(C)(=O)=O)C2,-12.42,-,-0.6165,-10.94,-,-10.2
Cc1cc(CN2CCCC2c2noc(C)n2)no1 (stereo not given),-4.553,-1.471,2.477,-7.036,-33.35,-2.618
O=C(O)C(F)(F)F.O=C(O)C(F)(F)F.[H][C@]12C[C@@H](Cn3cccn3)N(c3nccs3)[C@@]1([H])CCN(C(=O)CC)C2,-,-28.56,-,-,21.18,-
Cc1nc2c(c(N3CCC(CN4CCCC4=O)CC3)n1)CCNCC2,-5.635,5.42,-,-3.577,-12.52,0.3096
CN1CCN(Cc2cn3c(n2)CN(C(=O)c2ccccn2)CC3)CC1,-42.45,-,2.581,0.1554,-,-2.509
O=S(=O)(c1cnccc1N1CCN(CCO)CC1)N1CCOCC1,-17.39,10.35,4.74,15.9,20.45,-0.07179
Cc1nc(C)n(CC2CCCN2CC(=O)NC2CCOCC2)n1 (stereo not given),-5.29,-12.71,11.14,-17.57,-38.06,-8.177
CC(CNC(=O)c1ccc(=O)[nH]n1)N1CCc2ccccc21 (stereo not given),-16.71,36.83,-6.971,-4.471,25.02,1.76
[H][C@@]12CCCCCN(C(C)=O)[C@@]1([H])[C@H](c1cccc(F)c1)CN2C(=O)COC,-,9.862,-,-,-6.293,-
Cc1cccc(-n2ncc(C(=O)N3CCn4c(C)nnc4C3)c2C)c1,-,-8.223,5.843,9.729,20.94,1.852
O=C(O)C(F)(F)F.O=C(O)C(F)(F)F.[H][C@@]12COC[C@]1(COc1cccnc1)CN(Cc1ccccc1OC)C2,-,-2.186,-,-,-34.83,-
CC(=O)N1CCN(Cc2nccs2)CC2(CC(=O)N(C)C2)C1 (stereo not given),-35.03,-,0.7059,2.412,-,-1.161
Cc1nccn1-c1cc(CNC(=O)CCNC(=O)C2CCCC2)ccn1,-10.25,0.565,5.509,2.992,3.678,-1.657
O=C(c1cc(Cl)c[nH]1)N1CCCC(c2cc(C(F)(F)F)[nH]n2)C1 (stereo not given),-0.843,0.4697,1.434,-1.501,52.35,-10.67
Cc1c(NCc2ccccc2C#N)cccc1-n1cnnn1,-19.93,-1.161,8.571,-2.419,38.06,0.2329
CN(c1ccc(F)c(F)c1)S(=O)(=O)c1cc2c(c(C(=O)O)c1)OCCO2,-1.887,1.154,-3.78,2.317,14.07,6.358
COc1ccc2[nH]cc(-c3ccnc(N4CCC(C)CC4)n3)c2c1,71.9,11.49,5.422,-1.046,-17.93 & -2.979,-
Cn1cc(NC(=O)CNC(=O)N2CCN(c3ccccc3)CC2)cn1,-10.63,-2.835,-10.61,-5.942,15.33,4.619
Cc1cnn(CC(C)NCc2ccc(-n3cccn3)cc2)c1 (stereo not given),-7.704,3.881,1.305,-1.674,-5.701,-1.657
CCC(O)C1CCN(C(=O)Nc2nc(-c3ccccc3)ns2)CC1 (stereo not given),45.94,-6.442,8.411,12.48,-62.16,-2.124
CNc1cc(C)nc(N2CCC3(CC2)[C@H](O)C[C@@H]3OC)n1,-2.569,-3.819,5.703,0.3148,2.549,-2.478
CCC(C(=O)NC1(CN2CCOCC2)CCCC1)n1cccn1 (stereo not given),-1.863,-21.8,0.7299,-10.54,-8.186,-0.2179
CC(C)NC(=O)C(C(C)C)n1cnc2cc(F)c(F)cc21 (stereo not given),5.173,-1.741,10.76,-2.244,5.859,2.579
CSC1(CNc2ncc(Br)cn2)CCOCC1,5.822,12.18,4.645,3.29,-1.814,-1.192
CC(C)NS(=O)(=O)c1ccccc1CNCc1cccc(O)c1,-29.31,4.175,-,-3.062,11.79,-6.708
CN(C)C(=O)[C@H]1CCS(=O)(=O)[C@@H]2CN(c3ncccn3)C[C@H]12,-21.82,-,2.104,-0.9526,-,-
O=C(O)C(F)(F)F.[H][C@@]12CCC(=O)N(CCOC)[C@]1([H])CCN2Cc1cccc(C#N)c1,-,14.06,-,-,-1.362,-
[H][C@@]12CN(C3CCOCC3)C[C@@]1([H])N(Cc1ccncc1)C(=O)CO2,-,-13.27,-,-,22.47,-
CC1CCCN(S(=O)(=O)NCCN/C(O)=C2/N=CC=CC2=O)C1 (stereo not given),-39.21,3.433,0.4348,6.405,27.5,1.83
Cc1noc(C)c1C(=O)N1C[C@@H]2CN(Cc3cccnc3)CCO[C@@H]2C1,-8.382,-,2.521,0.4958,-,5.929
Cc1ccoc1C(=O)NC1CCN(Cc2csc3c(F)cccc23)CC1,-21.07,42.91,9.399,-7.971,11.96,2.827
Cc1nc(C(C)N(C)Cc2nc(CCC(C)C)no2)c(C)s1 (stereo not given),-26.54,4.525,-5.055,-3.928,11.36,-0.07764
O=C(c1csc(-c2ccc(C(F)(F)F)cc2)n1)N1CCCNCC1,4.454,8.53,-6.1,-7.857,53.12,6.833

The last 2 entries again:

{"smiles": "Cc1nc(C(C)N(C)Cc2nc(CCC(C)C)no2)c(C)s1", "stereo": "stereo not given", "Pks13 thioesterase": -26.54, "Toxoplasma": 4.525, "CoaBC": -5.055, "ClpP1P2": -3.928, "Leishmania in macrophages": 11.36, "MtTrpRS": -0.07764}
{"smiles": "O=C(c1csc(-c2ccc(C(F)(F)F)cc2)n1)N1CCCNCC1", "Pks13 thioesterase": 4.454, "Toxoplasma": 8.53, "CoaBC": -6.1, "ClpP1P2": -7.857, "Leishmania in macrophages": 53.12, "MtTrpRS": 6.833}